We go through four molecules from ChEMBL document CHEMBL1909046, “DrugMatrix in vitro pharmacology data”.

Sequences of proteins named here, by UniProt entry; tags and fusion partners are left off. A change or cut given only in a name is not applied to a line headed by its entry.
UniProt A6XA80: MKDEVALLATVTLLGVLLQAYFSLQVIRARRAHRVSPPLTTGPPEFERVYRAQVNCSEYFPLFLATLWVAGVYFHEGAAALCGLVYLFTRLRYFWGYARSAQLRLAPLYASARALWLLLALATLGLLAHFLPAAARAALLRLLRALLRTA
UniProt P15207, whole entry S389L: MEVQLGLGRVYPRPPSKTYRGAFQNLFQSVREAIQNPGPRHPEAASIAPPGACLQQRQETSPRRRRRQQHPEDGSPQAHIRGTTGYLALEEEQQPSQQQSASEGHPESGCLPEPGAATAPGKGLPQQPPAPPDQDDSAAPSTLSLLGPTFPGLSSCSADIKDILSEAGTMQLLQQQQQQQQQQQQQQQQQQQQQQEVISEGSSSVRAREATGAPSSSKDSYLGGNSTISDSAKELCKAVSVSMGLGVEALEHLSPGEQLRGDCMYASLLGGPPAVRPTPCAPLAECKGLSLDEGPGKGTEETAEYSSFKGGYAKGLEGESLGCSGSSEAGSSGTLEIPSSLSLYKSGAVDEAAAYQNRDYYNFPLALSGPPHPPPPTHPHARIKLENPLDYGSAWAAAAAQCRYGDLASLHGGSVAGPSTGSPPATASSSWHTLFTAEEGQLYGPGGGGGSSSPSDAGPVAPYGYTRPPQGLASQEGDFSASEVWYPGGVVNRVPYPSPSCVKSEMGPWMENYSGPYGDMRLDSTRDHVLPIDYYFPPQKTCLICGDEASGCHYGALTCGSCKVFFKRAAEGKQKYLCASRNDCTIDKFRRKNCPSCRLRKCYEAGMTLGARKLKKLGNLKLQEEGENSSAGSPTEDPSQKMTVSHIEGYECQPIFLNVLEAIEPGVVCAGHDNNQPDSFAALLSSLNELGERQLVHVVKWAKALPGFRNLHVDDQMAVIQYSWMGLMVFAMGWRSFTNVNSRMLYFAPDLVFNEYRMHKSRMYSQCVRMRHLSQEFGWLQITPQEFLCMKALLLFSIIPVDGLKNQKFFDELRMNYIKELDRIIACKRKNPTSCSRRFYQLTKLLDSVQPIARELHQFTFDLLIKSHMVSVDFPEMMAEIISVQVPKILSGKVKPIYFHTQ
UniProt P49146, whole entry: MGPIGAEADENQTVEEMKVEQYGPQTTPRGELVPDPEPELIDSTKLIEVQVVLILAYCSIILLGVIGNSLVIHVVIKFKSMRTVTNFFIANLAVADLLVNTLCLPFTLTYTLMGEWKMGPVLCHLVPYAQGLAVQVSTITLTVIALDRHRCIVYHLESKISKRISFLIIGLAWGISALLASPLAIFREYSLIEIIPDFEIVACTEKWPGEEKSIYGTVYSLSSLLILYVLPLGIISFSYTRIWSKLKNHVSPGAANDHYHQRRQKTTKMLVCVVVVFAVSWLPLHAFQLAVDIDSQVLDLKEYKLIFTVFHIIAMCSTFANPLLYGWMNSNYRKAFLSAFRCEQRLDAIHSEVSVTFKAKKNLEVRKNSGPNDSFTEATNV
UniProt P22303: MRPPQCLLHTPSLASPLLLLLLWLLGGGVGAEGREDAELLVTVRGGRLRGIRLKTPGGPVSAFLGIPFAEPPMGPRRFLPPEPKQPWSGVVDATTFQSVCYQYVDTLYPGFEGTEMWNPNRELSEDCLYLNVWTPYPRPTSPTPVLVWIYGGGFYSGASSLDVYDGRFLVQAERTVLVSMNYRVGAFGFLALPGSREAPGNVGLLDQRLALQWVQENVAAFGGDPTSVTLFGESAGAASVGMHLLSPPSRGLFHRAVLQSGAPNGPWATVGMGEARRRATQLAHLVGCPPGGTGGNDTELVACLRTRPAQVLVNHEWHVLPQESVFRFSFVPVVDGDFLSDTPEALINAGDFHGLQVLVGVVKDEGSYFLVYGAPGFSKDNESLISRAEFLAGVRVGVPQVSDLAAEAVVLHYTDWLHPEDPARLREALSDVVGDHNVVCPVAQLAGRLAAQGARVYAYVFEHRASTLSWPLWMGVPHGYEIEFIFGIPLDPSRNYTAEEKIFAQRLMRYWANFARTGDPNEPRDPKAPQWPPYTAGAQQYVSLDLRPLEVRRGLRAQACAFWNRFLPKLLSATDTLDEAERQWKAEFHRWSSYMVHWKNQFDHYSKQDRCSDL
UniProt P25021, whole entry: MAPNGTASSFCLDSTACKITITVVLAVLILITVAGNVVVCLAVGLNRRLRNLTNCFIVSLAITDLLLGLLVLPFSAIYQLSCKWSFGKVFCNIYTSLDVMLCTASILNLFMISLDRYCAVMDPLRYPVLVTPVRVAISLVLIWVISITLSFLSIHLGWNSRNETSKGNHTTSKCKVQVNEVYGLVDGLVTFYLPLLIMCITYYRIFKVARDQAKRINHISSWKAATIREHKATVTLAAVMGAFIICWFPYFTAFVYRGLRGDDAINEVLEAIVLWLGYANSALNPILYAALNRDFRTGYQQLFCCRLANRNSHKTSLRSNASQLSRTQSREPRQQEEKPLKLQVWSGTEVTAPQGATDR
UniProt P25929, whole entry: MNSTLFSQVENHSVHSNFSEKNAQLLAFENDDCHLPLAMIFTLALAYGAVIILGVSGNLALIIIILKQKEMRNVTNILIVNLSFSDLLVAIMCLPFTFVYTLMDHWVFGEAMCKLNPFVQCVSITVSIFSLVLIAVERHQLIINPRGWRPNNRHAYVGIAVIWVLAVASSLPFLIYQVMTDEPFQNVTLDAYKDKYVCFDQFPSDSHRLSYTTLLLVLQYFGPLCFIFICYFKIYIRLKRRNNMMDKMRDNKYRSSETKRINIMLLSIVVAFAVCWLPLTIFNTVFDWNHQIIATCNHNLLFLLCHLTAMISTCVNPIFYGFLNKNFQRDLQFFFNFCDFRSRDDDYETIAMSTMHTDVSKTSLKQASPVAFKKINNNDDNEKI
UniProt P29476, whole entry: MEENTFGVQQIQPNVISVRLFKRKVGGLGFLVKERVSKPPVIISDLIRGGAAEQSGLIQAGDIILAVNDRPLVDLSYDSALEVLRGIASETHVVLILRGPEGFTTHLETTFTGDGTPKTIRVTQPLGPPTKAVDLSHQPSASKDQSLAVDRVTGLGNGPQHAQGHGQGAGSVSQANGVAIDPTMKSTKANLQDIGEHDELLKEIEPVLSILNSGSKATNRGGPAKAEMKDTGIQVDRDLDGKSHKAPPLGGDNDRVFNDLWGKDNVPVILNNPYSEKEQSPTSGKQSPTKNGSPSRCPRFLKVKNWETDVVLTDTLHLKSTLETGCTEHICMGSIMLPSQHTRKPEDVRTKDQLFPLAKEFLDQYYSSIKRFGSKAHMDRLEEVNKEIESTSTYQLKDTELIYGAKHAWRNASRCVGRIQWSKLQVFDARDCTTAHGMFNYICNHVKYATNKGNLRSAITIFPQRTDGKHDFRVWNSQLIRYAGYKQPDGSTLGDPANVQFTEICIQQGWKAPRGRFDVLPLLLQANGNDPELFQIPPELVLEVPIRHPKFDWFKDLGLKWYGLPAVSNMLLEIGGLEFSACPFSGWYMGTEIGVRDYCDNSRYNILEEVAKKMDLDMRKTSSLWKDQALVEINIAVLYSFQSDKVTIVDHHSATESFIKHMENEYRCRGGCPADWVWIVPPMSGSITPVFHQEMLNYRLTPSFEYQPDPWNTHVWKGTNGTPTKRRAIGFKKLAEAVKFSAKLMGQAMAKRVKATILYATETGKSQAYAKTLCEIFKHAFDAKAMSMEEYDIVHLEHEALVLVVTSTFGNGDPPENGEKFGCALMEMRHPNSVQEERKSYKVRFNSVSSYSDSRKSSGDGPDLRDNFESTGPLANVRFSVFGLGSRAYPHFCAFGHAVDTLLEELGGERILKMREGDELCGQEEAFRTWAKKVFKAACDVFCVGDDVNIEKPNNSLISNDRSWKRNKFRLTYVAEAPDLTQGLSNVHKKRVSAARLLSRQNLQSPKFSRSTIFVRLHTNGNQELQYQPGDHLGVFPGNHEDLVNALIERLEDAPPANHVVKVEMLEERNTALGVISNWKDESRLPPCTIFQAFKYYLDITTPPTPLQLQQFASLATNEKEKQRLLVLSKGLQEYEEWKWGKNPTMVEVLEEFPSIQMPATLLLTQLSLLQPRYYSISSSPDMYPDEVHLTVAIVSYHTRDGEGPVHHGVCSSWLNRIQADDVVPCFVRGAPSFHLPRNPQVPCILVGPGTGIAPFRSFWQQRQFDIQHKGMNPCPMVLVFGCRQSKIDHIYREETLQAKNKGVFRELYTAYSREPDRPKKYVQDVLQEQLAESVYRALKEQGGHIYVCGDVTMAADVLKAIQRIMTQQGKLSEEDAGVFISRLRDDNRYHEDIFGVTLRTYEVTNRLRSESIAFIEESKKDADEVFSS
UniProt P08575: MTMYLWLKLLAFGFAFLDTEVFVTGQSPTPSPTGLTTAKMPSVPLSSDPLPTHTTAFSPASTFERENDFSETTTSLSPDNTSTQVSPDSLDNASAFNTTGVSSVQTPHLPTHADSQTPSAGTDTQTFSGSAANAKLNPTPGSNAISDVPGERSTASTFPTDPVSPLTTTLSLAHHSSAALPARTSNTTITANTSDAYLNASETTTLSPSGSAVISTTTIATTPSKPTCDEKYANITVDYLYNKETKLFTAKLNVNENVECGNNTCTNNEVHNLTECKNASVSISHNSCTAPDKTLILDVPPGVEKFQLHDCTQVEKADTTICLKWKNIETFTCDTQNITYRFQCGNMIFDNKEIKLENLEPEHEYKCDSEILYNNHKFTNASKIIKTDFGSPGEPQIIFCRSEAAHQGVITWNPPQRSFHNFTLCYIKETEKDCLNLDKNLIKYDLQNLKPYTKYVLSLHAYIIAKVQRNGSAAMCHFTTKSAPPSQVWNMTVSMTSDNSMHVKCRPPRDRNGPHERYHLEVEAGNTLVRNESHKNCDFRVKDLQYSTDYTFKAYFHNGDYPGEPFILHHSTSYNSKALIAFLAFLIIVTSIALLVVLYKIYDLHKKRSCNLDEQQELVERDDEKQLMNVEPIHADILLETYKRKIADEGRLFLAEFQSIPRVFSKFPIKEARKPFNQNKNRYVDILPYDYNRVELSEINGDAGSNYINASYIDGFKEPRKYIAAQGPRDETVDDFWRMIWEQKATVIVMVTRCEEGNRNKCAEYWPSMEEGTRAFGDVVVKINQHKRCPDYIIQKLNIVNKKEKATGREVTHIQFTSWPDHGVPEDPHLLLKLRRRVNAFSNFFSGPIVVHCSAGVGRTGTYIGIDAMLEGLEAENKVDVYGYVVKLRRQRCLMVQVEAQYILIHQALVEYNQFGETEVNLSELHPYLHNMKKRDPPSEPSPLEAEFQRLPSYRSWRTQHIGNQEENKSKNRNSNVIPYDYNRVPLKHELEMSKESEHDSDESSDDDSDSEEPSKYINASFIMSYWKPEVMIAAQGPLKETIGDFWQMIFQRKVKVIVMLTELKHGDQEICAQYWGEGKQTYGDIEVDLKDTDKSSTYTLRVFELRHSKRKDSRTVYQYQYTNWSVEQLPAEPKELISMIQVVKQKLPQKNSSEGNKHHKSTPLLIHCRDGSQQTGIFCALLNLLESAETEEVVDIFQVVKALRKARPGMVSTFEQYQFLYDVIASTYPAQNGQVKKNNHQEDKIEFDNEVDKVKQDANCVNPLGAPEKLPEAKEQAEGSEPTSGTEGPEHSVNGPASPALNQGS
UniProt P25105: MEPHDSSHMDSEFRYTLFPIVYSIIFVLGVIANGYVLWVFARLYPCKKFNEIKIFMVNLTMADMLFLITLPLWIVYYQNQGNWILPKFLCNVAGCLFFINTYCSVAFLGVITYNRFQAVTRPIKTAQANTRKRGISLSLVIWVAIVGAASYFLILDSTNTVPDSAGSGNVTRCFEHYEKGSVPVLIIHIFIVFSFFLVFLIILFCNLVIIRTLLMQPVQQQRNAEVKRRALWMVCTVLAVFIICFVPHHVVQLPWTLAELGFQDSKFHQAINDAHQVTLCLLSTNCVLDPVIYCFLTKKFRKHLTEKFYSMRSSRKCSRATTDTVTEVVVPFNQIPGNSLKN

One data set addresses Glycine receptor (Rattus norvegicus, UniProt P22771+P24524+P07727+P20781). It counts as cell membranes, Wistar, Spinal cord, Membrane.
The next data set concerns the target Progesterone receptor (Bos taurus, UniProt Q690N0). Nature of the data set: DRUGMATRIX: Progesterone radioligand binding (ligand: [3H] R-5020). It counts as tissue-based, Uterus. Particulars: Not Active = under 50% inhibition at 10 µM.
For a further data set, the target named is Leukotriene C4 synthase (Cavia porcellus, UniProt A6XA80). It counts as tissue-based, Lung.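 Also: enzyme inhibition assay of leukotriene C4 synthase, using LTA4 as the substrate; in other assays of this panel Not Active means under 50% inhibition at 10 µM.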
The target in data set [1] is C-X-C chemokine receptor type 1 (Homo sapiens, UniProt P25024). Also: in other assays of this panel Not Active means under 50% inhibition at 10 µM.
The target in a further data set is Melanocortin receptor 4 (Homo sapiens, UniProt P32245). It counts as cell membranes, Membrane. Particulars: hek293. Also: in other assays of this panel Not Active means under 50% inhibition at 10 µM.
In data set [2] the target is Delta-type opioid receptor (Homo sapiens, UniProt P41143). The data set is classed as cell membranes, Membrane. The conditions noted are these: hek293. Also: in other assays of this panel Not Active means under 50% inhibition at 10 µM.
The target of data set [3] is Beta-1 adrenergic receptor (Homo sapiens, UniProt P08588). Nature of the data set: DRUGMATRIX: Adrenergic beta1 radioligand binding (ligand: [125I] Cyanopindolol). It counts as cell membranes, Membrane. The conditions noted are these: cho-k1; Not Active = under 50% inhibition at 10 µM.
The target of data set [4] is Amine oxidase [flavin-containing] A (Homo sapiens, UniProt P21397). Nature of the data set: DRUGMATRIX: Monoamine Oxidase MAO-A enzyme inhibition (substrate: Kynuramine). Particulars: bti-tn-5b1-4; Not Active = under 50% inhibition at 10 µM.
For another data set, the target named is Caspase-1 (Homo sapiens, UniProt P29466). Details: species or system Escherichia coli.
Data set [5] addresses Voltage-gated inwardly rectifying potassium channel KCNH2 (Homo sapiens, UniProt Q12809). The conditions noted are these: hek293.
Data set [6] deals with Epidermal growth factor receptor (Homo sapiens, UniProt P00533). Nature of the data set: DRUGMATRIX: Protein Tyrosine Kinase, EGF Receptor enzyme inhibition (substrate: Poly(Glu:Tyr)). It counts as cell-based, Insect cells. Particulars: Not Active = under 50% inhibition at 10 µM; for Ki: insect cells.
For data set [7], the target named is Mitogen-activated protein kinase 14 (Homo sapiens, UniProt Q16539). Also on record: species or system Escherichia coli.
Another data set has as its target Thromboxane-A synthase (Homo sapiens, UniProt P24557). The data set is classed as tissue-based. The conditions noted are these: platelet.
The target in data set [8] is Type-2 angiotensin II receptor (Homo sapiens, UniProt P50052). The data set is classed as cell-based. The conditions noted are these: cho-k1. Also: in other assays of this panel Not Active means under 50% inhibition at 10 µM.
The next data set concerns the target Androgen receptor (Rattus norvegicus, UniProt P15207). Also: in other assays of this panel Not Active means under 50% inhibition at 10 µM.
The target of a further data set is D(3) dopamine receptor (Homo sapiens, UniProt P35462). Nature of the data set: DRUGMATRIX: Dopamine D3 radioligand binding (ligand: [3H] Spiperone). The data set is classed as cell membranes, CHO, Membrane.
Data set [9] deals with Neuropeptide Y receptor type 2 (Homo sapiens, UniProt P49146). The data set is classed as cell membranes, Membrane. The conditions noted are these: kan-ts.
In data set [10] the target is Protein kinase C alpha type (Homo sapiens, UniProt P17252). The data set is classed as cell-based. The conditions noted are these: sf9.
A further data set addresses D(4) dopamine receptor (Homo sapiens, UniProt P21917). Nature of the data set: DRUGMATRIX: Dopamine D4.2 radioligand binding (ligand: [3H] Spiperone). The conditions noted are these: cho-k1; Not Active = under 50% inhibition at 10 µM. The data set is classed as cell membranes, Membrane.
In data set [11] the target is Cholecystokinin receptor type A (Homo sapiens, UniProt P32238). It counts as cell membranes, Membrane. Particulars: 1321-n1. Also: in other assays of this panel Not Active means under 50% inhibition at 10 µM.
A further data set has as its target Acetylcholinesterase (Homo sapiens, UniProt P22303). Nature of the data set: DRUGMATRIX: Acetylcholinesterase enzyme inhibition (substrate: acetylthiocholine). The conditions noted are these: Not Active = under 50% inhibition at 10 µM; for Ki: hek293. It counts as cell-based, HEK293.
In another data set the target is Histamine H2 receptor (Homo sapiens, UniProt P25021). It counts as cell membranes, Membrane. Particulars: cho-k1. Also: in other assays of this panel Not Active means under 50% inhibition at 10 µM.
The target of data set [12] is Cysteinyl leukotriene receptor 1 (Homo sapiens, UniProt Q9Y271). It counts as cell membranes, Membrane. The conditions noted are these: cho-k1. Also: in other assays of this panel Not Active means under 50% inhibition at 10 µM.
The next data set has as its target Endothelin-1 receptor (Homo sapiens, UniProt P25101). It counts as cell membranes, Membrane. The conditions noted are these: cho-k1. Also: in other assays of this panel Not Active means under 50% inhibition at 10 µM.
The target of another data set is Vasopressin V1a receptor (Homo sapiens, UniProt P37288). It counts as cell membranes, Membrane. Particulars: hek293. Also: in other assays of this panel Not Active means under 50% inhibition at 10 µM.
Data set [13] deals with Neuropeptide Y receptor type 1 (Homo sapiens, UniProt P25929). It counts as cell membranes, Membrane. Particulars: sk-n-mc.
The next data set concerns the target Nitric oxide synthase 1 (Rattus norvegicus, UniProt P29476). The data set is classed as tissue-based, Cerebellum. Also: in other assays of this panel Not Active means under 50% inhibition at 10 µM.
Another data set concerns the target Cytochrome P450 2C19 (Homo sapiens, UniProt P33261). Particulars: bti-tn-5b1-4. Also: in other assays of this panel Not Active means under 50% inhibition at 10 µM.
Data set [14] addresses Receptor-type tyrosine-protein phosphatase C (Homo sapiens, UniProt P08575). Also on record: species or system Escherichia coli.
In data set [15] the target is Platelet-activating factor receptor (Homo sapiens, UniProt P25105). It counts as tissue-based. Also: in other assays of this panel Not Active means under 50% inhibition at 10 µM.
Data set [16] has as its target Alpha-2C adrenergic receptor (Homo sapiens, UniProt P18825). Nature of the data set: DRUGMATRIX: Adrenergic Alpha-2C radioligand binding (ligand: [3H] MK-912). The data set is classed as cell membranes, Sf9, Membrane.
Data set [17] is described as follows: DRUGMATRIX: Glutamate, NMDA, Agonism radioligand binding (ligand: [3H] CGP-39653). Particulars: Not Active = under 50% inhibition at 10 µM. It counts as cell membranes, Rattus norvegicus, Wistar, Cerebral cortex, Membrane.
Data set [18] in a line: DRUGMATRIX: Nicotinic Acetylcholine radioligand binding (ligand: [125I] Epibatidine). The data set is classed as cell membranes, Membrane. Particulars: imr-32; Not Active = under 50% inhibition at 10 µM.
The nature of data set [19]: DRUGMATRIX: GABAA, Muscimol, Central radioligand binding (ligand: [3H] Muscimol). The data set is classed as cell membranes, Rattus norvegicus, Wistar, Brain, Membrane. Particulars: Not Active = under 50% inhibition at 10 µM.
Data set [20] is described as follows: DRUGMATRIX: Imidazoline I2, Central radioligand binding (ligand: [3H] Idazoxan). It counts as cell membranes, Rattus norvegicus, Wistar, Cerebral cortex, Membrane. Particulars: Not Active = under 50% inhibition at 10 µM.
Data set [21] can be described thus: DRUGMATRIX: Glutamate, AMPA radioligand binding (ligand: [3H] AMPA). It counts as cell membranes, Rattus norvegicus, Wistar, Cerebral cortex, Membrane. Particulars: Not Active = under 50% inhibition at 10 µM.
A short description of data set [22]: DRUGMATRIX: Calcium Channel Type L, Benzothiazepine radioligand binding (ligand: [3H] Diltiazem). It counts as cell membranes, Rattus norvegicus, Wistar, Brain, Membrane. Particulars: Not Active = under 50% inhibition at 10 µM.
Data set [23] can be described thus: DRUGMATRIX: Calcium Channel Type L, Dihydropyridine radioligand binding (ligand: [3H] Nitrendipine). Particulars: Not Active = under 50% inhibition at 10 µM. The data set is classed as cell membranes, Rattus norvegicus, Wistar, Cerebral cortex, Membrane.
A short description of data set [24]: DRUGMATRIX: Glutamate, NMDA, Phencyclidine radioligand binding (ligand: [3H] TCP). Particulars: Not Active = under 50% inhibition at 10 µM. It counts as cell membranes, Rattus norvegicus, Wistar, Cerebral cortex, Membrane.

Consider `CCCCCCCCc1ccc(O)cc1` [4-OCTYLPHENOL], for which the IC50 entry (at Glycine receptor; at Progesterone receptor; against Leukotriene C4 synthase; in [1]; on Melanocortin receptor 4; in [2]) was “Not Active” each time. Besides, the IC50 entry (in [3]; in data set [4]; against Caspase-1; in data set [5]; in data set [8]; against Androgen receptor) was “Not Active” throughout. The IC50 result (on D(3) dopamine receptor (cho); in data set [9]; in [10]; at D(4) dopamine receptor; in data set [11]; at Histamine H2 receptor) was “Not Active” throughout. For the same molecule, the IC50 result (in data set [12]; against Endothelin-1 receptor; against Vasopressin V1a receptor; in data set [13]; on Nitric oxide synthase 1; against Cytochrome P450 2C19) was “Not Active” in each case. Besides, the IC50 entry in data set [14] and in [15] was “Not Active” throughout. Further, the Ki (commonly a dissociation constant, usually derived from enzyme kinetics or from competition with a known ligand) is “Not Active” in data set [5]; “Note: corresponding IC50 reported as Active” in data set [6]; “Note: corresponding IC50 reported as Active” in data set [7]; “Note: corresponding IC50 reported as Active” at Thromboxane-A synthase; “Note: corresponding IC50 reported as Active” at Acetylcholinesterase; “Not Active” at Cytochrome P450 2C19.
As for `CC(C)(C)c1ccc(C(=O)CCCN2CCC(OC(c3ccccc3)c3ccccc3)CC2)cc1` [EBASTINE], the half-inhibitory concentration (IC50) result (against Glycine receptor; on Progesterone receptor; against Leukotriene C4 synthase; in data set [1]; against Melanocortin receptor 4; in [2]) was “Not Active” in each case. Further, the IC50 – broadly, the point on the concentration scale where inhibition reaches its midpoint – is “Not Active” in [3]; “Not Active” in data set [4]; “Not Active” on Caspase-1; 276 nM in [16]; 559 nM in data set [6]; “Not Active” in data set [7]. The IC50 result against Thromboxane-A synthase was “Not Active”; in data set [8], “Not Active”; on D(3) dopamine receptor (read-out: IC50), 122 nM; in [9], “Not Active”; in data set [10], “Not Active”; in data set [11], “Not Active”. Further, the half-maximal inhibitory concentration (IC50) at Acetylcholinesterase was 7480 nM; in data set [12] it was “Not Active”; at Endothelin-1 receptor, “Not Active”; against Vasopressin V1a receptor, “Not Active”; in data set [13], “Not Active”; at Nitric oxide synthase 1, “Not Active”. Further, the IC50 entry (at Cytochrome P450 2C19; in [14]; in [15]) was “Not Active” throughout. For the same molecule, the Ki was 40.1 nM in data set [16]; “Note: corresponding IC50 reported as Active” in [6]; 41.3 nM on D(3) dopamine receptor; “Note: corresponding IC50 reported as Active” at Acetylcholinesterase; “Not Active” on Cytochrome P450 2C19.
As to `C=CCN1CC[C@]23c4c5ccc(O)c4O[C@H]2C(=O)CC[C@@]3(O)[C@H]1C5` [NALOXONE], the concentration for half-maximal inhibition (IC50) entry in data set [17], in [18], in [19], in data set [20], in [21] and in [22] was “Not Active” throughout. The half-inhibitory concentration (IC50) entry in data set [23] and in data set [24] was “Not Active” each time. In addition, the Ki result in data set [17], in [18], in data set [19], in [20], in data set [21] and in [22] was “Not Active” each time. Further, the Ki entry in [23] and in [24] was “Not Active” throughout.
For the molecule `CC(C)NCC(O)COc1cccc2ccccc12` (stereo unspecified) [PROPRANOLOL], the IC50 result in [17], in data set [18], in [19], in data set [20], in data set [21] and in data set [22] was “Not Active” throughout. Also, the IC50 entry in data set [23] and in [24] was “Not Active” each time. For the same molecule, the Ki entry in data set [17], in data set [18], in data set [19], in data set [20], in [21] and in data set [22] was “Not Active” each time. Further, the Ki result in [23] and in data set [24] was “Not Active” in each case.
